# Measurements published in the supplement of paper PMC4604168 (melanoma cell lines).
# This is one part of the list. Many values rest on one well or one pass, so single values are uncertain.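 Cells were imaged in 1,536-well plates, and nuclei stained with an antibody against cleaved PARP were counted against all DNA-stained nuclei to give the apoptosis fraction. Screening doses were chosen to leave most cells alive, and resting and induced cleaved-PARP levels differ strongly between cell lines.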
# Columns and labels:
# Experiment in all cases: cleaved PARP positive nuclei fraction relative to DMSO control; melanoma cells; higher = more apoptosis
# Settings in all cases: library dose: low library concentration; 72 h
# 501Mel = system: 501Mel
# A101D = system: A101D
# A2058 = system: A2058
# C32 = system: C32
# CBRC008 = system: CBRC008 (line from a melanoma biopsy)
# CBRC014 = system: CBRC014 (line from a melanoma biopsy)
# CBRC016 = system: CBRC016 (line from a melanoma biopsy)
# CBRC017 = system: CBRC017 (line from a melanoma biopsy)
# COLO792 = system: COLO792
# COLO800 = system: COLO800
# COLO829 = system: COLO829
# G361 = system: G361
# IPC-298 = system: IPC-298
# IST-MEL1 = system: IST-MEL1
# LB2518-MEL = system: LB2518-MEL
# LOXIMVI = system: LOXIMVI
Compound,cleaved PARP positive nuclei fraction (501Mel) [%],cleaved PARP positive nuclei fraction (A101D) [%],cleaved PARP positive nuclei fraction (A2058) [%],cleaved PARP positive nuclei fraction (C32) [%],cleaved PARP positive nuclei fraction (CBRC008) [%],cleaved PARP positive nuclei fraction (CBRC014) [%],cleaved PARP positive nuclei fraction (CBRC016) [%],cleaved PARP positive nuclei fraction (CBRC017) [%],cleaved PARP positive nuclei fraction (COLO792) [%],cleaved PARP positive nuclei fraction (COLO800) [%],cleaved PARP positive nuclei fraction (COLO829) [%],cleaved PARP positive nuclei fraction (G361) [%],cleaved PARP positive nuclei fraction (IPC-298) [%],cleaved PARP positive nuclei fraction (IST-MEL1) [%],cleaved PARP positive nuclei fraction (LB2518-MEL) [%],cleaved PARP positive nuclei fraction (LOXIMVI) [%]
"CCCCCCCCc1ccc(CCC(N)(CO)CO)cc1 [fingolimod] + Cn1cc(/C=C2\C(=O)Nc3cccnc32)c2ccccc21 [GW441756] (first compound 2 µM, partner dose 0.4 µM)",92.2,74.9,81.2,81.7,51.2,101,27.9,206,157,135,90,157,60.8,104,69.2,60.1
"NC(=O)c1ccc(N(C(N)=O)c2c(F)cccc2F)nc1-c1ccc(F)cc1F + O=c1cc(-c2cccc3c2Sc2ccccc2S3)oc(N2CCOCC2)c1 [KU55933] (first compound 0.4 µM, partner dose 1 µM)",145,20.9,72.1,27.4,150,130,65.7,85.2,103,172,121,86.2,72.5,118,26.1,89.6
"Cn1cnc2c(F)c(Nc3ccc(Br)cc3Cl)c(C(=O)NOCCO)cc21 [selumetinib] + COc1ccc(-c2ccc3c(N4CCOCC4)nc(N4C[C@@H](C)O[C@@H](C)C4)nc3n2)cc1CO [KU0063794] (first compound 0.015 µM, partner dose 0.02 µM)",95.1,76.5,17.7,23.3,280,146,125,138,26.4,32.5,94.5,162,126,145,260,109
"CC1(C)CCC(c2ccc(Cl)cc2)=C(CN2CCN(c3ccc(C(=O)NS(=O)(=O)c4ccc(N[C@H](CCN5CCOCC5)CSc5ccccc5)c(S(=O)(=O)C(F)(F)F)c4)cc3)CC2)C1 + N#Cc1c(O)c2c(-c3ccc(-c4ccccc4O)cc3)csc2[nH]c1=O [A769662] (first compound 0.4 µM, partner dose 2 µM)",124,13.2,50.8,176,364,726,272,269,624,161,218,141,42.5,194,202,33.2
"CC1(C)CCC(c2ccc(Cl)cc2)=C(CN2CCN(c3ccc(C(=O)NS(=O)(=O)c4ccc(N[C@H](CCN5CCOCC5)CSc5ccccc5)c(S(=O)(=O)C(F)(F)F)c4)cc3)CC2)C1 + CCN(CC)CCCCNc1ncc2cc(-c3cc(OC)cc(OC)c3)c(NC(=O)NC(C)(C)C)nc2n1 [PD173074] (first compound 0.4 µM, partner dose 0.1 µM)",68.4,43.1,74,250,1070,629,197,402,230,66.4,93.3,160,189,144,163,146
"C[C@]1(O)C[C@@H](c2nc(-c3ccc4ccc(-c5ccccc5)nc4c3)c3c(N)nccn32)C1 + COc1cc2ncnc(Nc3ccc(Oc4ccccc4)cc3)c2cc1OC [SrcI1] (first compound 0.4 µM, partner dose 2 µM)",83.9,19.7,88.3,90.8,111,104,42.4,116,77.8,176,96.6,114,154,120,137,48.7
"CN(c1ncccc1CNc1nc(Nc2ccc3c(c2)CC(=O)N3)ncc1C(F)(F)F)S(C)(=O)=O + Cn1cc(/C=C2\C(=O)Nc3cccnc32)c2ccccc21 [GW441756] (first compound 0.08 µM, partner dose 0.4 µM)",93.1,29.1,47.4,88.8,422,94.5,99.5,50.7,123,160,128,44.9,97.3,217,43.2,87.8
"C[C@@H](N)c1ccc(C(=O)Nc2ccnc3[nH]ccc23)cc1 + Oc1cc(-c2nc(-c3ccccc3)[nH]c2-c2ccncc2)ccc1Cl [L779450] (first compound 0.4 µM, partner dose 0.2 µM)",82.4,17.2,68.5,62.3,93.6,103,54.8,214,179,89.2,93.4,244,50.5,198,65.3,255
"CCCCCCCCc1ccc(CCC(N)(CO)CO)cc1 [fingolimod] + COc1cc2ncnc(Nc3ccc(Oc4ccccc4)cc3)c2cc1OC [SrcI1] (first compound 2 µM, partner dose 2 µM)",222,37.4,70.8,162,43.2,219,665,77.4,122,100,132,140,93.9,82.6,93.7,29.7
"NC(=O)c1ccc(N(C(N)=O)c2c(F)cccc2F)nc1-c1ccc(F)cc1F + COc1ccc(COc2ccc(Cc3cnc(N)nc3N)cc2OC)cc1 [GW2580] (first compound 0.4 µM, partner dose 1 µM)",76.5,126,180,910,37.5,94.5,35.7,105,111,70.8,81.6,86.3,189,226,69.3,818
"CCN(CC)CCNC(=O)c1c(C)[nH]c(/C=C2\C(=O)Nc3ccc(F)cc32)c1C [sunitinib] + c1cc(-c2cnn3cc(-c4ccc(OCCN5CCCCC5)cc4)cnc23)ccn1 [Dorsomorphin] (first compound 0.4 µM, partner dose 0.4 µM)",278,47.1,110,88.6,35.5,78.6,38.2,99.6,77.6,117,95.2,143,126,148,84.7,71.7
"Cn1sc(=O)n(Cc2ccccc2)c1=O + Oc1cc(-c2nc(-c3ccccc3)[nH]c2-c2ccncc2)ccc1Cl [L779450] (first compound 0.4 µM, partner dose 0.2 µM)",91.6,17.1,65.8,99.3,86.7,97.3,62.2,83.4,70.3,172,95.1,72.6,105,204,151,71.1
"NC(=O)c1ccc(N(C(N)=O)c2c(F)cccc2F)nc1-c1ccc(F)cc1F + COc1cc(N2CCC(N3CCN(C)CC3)CC2)ccc1Nc1ncc(Cl)c(Nc2ccccc2S(=O)(=O)C(C)C)n1 [NVP-TAE684] (first compound 0.4 µM, partner dose 0.08 µM)",30.8,54.3,72.6,278,36.9,83.1,18.7,80.8,107,160,84.3,165,91.2,90.4,35.6,85.1
"C[C@@H](N)c1ccc(C(=O)Nc2ccnc3[nH]ccc23)cc1 + O=C(Nc1ccccc1)c1cc([N+](=O)[O-])ccc1Cl [GW9662] (first compound 0.4 µM, partner dose 2 µM)",76.2,35,128,134,76.8,124,47.9,65.6,134,43,110,343,40.7,95.4,53.2,78.6
"NC(=O)c1ccc(N(C(N)=O)c2c(F)cccc2F)nc1-c1ccc(F)cc1F + N#Cc1c(O)c2c(-c3ccc(-c4ccccc4O)cc3)csc2[nH]c1=O [A769662] (first compound 0.4 µM, partner dose 2 µM)",87.9,12.2,65.8,151,64.8,92.7,92.6,78.7,105,110,68.8,110,113,75.3,153,125
"NC1(c2ccc(-c3nc4ccn5c(=O)[nH]nc5c4cc3-c3ccccc3)cc2)CCC1 + COc1cc2ncnc(Nc3ccc(Oc4ccccc4)cc3)c2cc1OC [SrcI1] (first compound 0.4 µM, partner dose 2 µM)",77.1,30.1,118,84.1,162,40.7,113,128,84.6,65.7,65.4,131,95.1,206,21.7,94.3
"C[C@]1(O)C[C@@H](c2nc(-c3ccc4ccc(-c5ccccc5)nc4c3)c3c(N)nccn32)C1 + CCCCCCCCCCCC1=C(O)C(=O)C=C(O)C1=O [Embelin] (first compound 0.4 µM, partner dose 1.2 µM)",70.8,2780,66.2,56.9,79.6,109,64.7,234,143,134,133,100,104,108,278,165
"CCCCCCCCc1ccc(CCC(N)(CO)CO)cc1 [fingolimod] + O=S(=O)(c1ccccc1)N(CC(F)(F)F)c1ccc(C(O)(C(F)(F)F)C(F)(F)F)cc1 [T0901317] (first compound 2 µM, partner dose 1.4 µM)",176,50,139,78.8,177,105,45.4,225,116,38.9,96.3,135,65,36.9,59.8,86.9
"NC(=O)c1ccc(N(C(N)=O)c2c(F)cccc2F)nc1-c1ccc(F)cc1F + O=C(Nc1ccccc1)c1cc([N+](=O)[O-])ccc1Cl [GW9662] (first compound 0.4 µM, partner dose 2 µM)",187,49.5,35.9,121,56.9,89.5,97.6,111,118,213,88.3,154,186,189,94,83
"CC1(C)CCC(c2ccc(Cl)cc2)=C(CN2CCN(c3ccc(C(=O)NS(=O)(=O)c4ccc(N[C@H](CCN5CCOCC5)CSc5ccccc5)c(S(=O)(=O)C(F)(F)F)c4)cc3)CC2)C1 + O=C(O)C(=O)Nc1sc2c(c1C(=O)O)CCNC2 [TCS401] (first compound 0.4 µM, partner dose 1.66667 µM)",237,20.5,168,129,150,575,361,263,419,104,104,159,84.9,153,223,96.4

# A different layout for some results above.
Compound | cleaved PARP positive nuclei fraction (501Mel) [%] | cleaved PARP positive nuclei fraction (A101D) [%] | cleaved PARP positive nuclei fraction (A2058) [%] | cleaved PARP positive nuclei fraction (C32) [%] | cleaved PARP positive nuclei fraction (CBRC008) [%] | cleaved PARP positive nuclei fraction (CBRC014) [%] | cleaved PARP positive nuclei fraction (CBRC016) [%] | cleaved PARP positive nuclei fraction (CBRC017) [%] | cleaved PARP positive nuclei fraction (COLO792) [%] | cleaved PARP positive nuclei fraction (COLO800) [%] | cleaved PARP positive nuclei fraction (COLO829) [%] | cleaved PARP positive nuclei fraction (G361) [%] | cleaved PARP positive nuclei fraction (IPC-298) [%] | cleaved PARP positive nuclei fraction (IST-MEL1) [%] | cleaved PARP positive nuclei fraction (LB2518-MEL) [%] | cleaved PARP positive nuclei fraction (LOXIMVI) [%]
NC(=O)c1ccc(N(C(N)=O)c2c(F)cccc2F)nc1-c1ccc(F)cc1F + COc1cc(N2CCC(N3CCN(C)CC3)CC2)ccc1Nc1ncc(Cl)c(Nc2ccccc2S(=O)(=O)C(C)C)n1 [NVP-TAE684] (first compound 0.4 µM, partner dose 0.08 µM) | 30.8 | 54.3 | 72.6 | 278 | 36.9 | 83.1 | 18.7 | 80.8 | 107 | 160 | 84.3 | 165 | 91.2 | 90.4 | 35.6 | 85.1
C[C@@H](N)c1ccc(C(=O)Nc2ccnc3[nH]ccc23)cc1 + O=C(Nc1ccccc1)c1cc([N+](=O)[O-])ccc1Cl [GW9662] (first compound 0.4 µM, partner dose 2 µM) | 76.2 | 35 | 128 | 134 | 76.8 | 124 | 47.9 | 65.6 | 134 | 43 | 110 | 343 | 40.7 | 95.4 | 53.2 | 78.6
